Data reported in the supplement of paper PMC6411743.
± gives the standard deviation of the averaged measurements. The list shows a part of the results.

Protein sequences, listed by entry. Tags and fused reporters are not part of them. Lines headed by an entry give the natural chain unless they say otherwise; changes in a name come on top.
UniProt Q7Z5L2: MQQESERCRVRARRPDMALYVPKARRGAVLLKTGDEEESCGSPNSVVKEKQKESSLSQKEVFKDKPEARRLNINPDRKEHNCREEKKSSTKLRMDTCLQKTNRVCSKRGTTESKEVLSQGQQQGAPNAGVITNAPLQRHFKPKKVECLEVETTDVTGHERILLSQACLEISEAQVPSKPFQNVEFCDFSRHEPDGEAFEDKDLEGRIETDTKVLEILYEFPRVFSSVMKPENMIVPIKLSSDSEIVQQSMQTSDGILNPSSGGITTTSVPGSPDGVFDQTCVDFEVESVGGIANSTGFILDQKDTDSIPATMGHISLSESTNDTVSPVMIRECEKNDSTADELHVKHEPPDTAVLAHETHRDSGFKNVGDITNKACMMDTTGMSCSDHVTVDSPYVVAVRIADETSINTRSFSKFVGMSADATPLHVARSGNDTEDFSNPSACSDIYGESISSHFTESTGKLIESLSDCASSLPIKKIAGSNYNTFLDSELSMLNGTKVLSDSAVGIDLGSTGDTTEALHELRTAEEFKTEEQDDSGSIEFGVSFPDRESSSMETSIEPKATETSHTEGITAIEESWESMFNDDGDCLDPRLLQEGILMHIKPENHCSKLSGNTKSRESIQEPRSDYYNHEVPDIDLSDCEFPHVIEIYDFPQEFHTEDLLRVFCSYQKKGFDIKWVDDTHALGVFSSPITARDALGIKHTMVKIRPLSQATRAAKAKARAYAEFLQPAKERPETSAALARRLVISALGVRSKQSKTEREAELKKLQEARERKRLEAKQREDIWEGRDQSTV
UniProt Q9BXM9: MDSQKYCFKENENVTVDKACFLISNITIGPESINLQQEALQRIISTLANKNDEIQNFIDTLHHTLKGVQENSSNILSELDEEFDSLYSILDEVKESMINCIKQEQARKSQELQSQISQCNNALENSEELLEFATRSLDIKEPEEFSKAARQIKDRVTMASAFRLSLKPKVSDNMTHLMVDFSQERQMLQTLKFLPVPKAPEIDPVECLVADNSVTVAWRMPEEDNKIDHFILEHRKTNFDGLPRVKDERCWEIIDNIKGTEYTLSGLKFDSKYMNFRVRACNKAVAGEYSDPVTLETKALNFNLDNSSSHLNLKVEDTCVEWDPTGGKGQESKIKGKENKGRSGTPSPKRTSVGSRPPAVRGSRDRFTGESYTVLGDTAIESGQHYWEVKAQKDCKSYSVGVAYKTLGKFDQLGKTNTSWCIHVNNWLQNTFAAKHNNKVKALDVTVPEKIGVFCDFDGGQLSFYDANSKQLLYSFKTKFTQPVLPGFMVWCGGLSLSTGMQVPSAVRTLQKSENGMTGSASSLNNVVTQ
UniProt Q8WUA7: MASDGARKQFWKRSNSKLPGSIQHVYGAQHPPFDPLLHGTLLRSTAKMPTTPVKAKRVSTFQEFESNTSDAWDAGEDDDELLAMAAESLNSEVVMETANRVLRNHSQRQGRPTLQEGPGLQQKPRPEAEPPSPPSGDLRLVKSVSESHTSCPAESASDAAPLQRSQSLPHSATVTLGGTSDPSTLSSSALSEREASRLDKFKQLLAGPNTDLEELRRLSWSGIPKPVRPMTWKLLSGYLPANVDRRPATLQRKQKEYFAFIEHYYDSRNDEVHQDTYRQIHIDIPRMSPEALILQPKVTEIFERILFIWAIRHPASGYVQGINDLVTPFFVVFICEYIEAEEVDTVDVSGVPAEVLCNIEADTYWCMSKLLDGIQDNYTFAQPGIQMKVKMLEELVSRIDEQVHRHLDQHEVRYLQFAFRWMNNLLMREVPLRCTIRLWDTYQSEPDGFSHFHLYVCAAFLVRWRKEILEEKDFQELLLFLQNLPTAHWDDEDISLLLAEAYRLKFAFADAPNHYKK
UniProt P56556, whole entry: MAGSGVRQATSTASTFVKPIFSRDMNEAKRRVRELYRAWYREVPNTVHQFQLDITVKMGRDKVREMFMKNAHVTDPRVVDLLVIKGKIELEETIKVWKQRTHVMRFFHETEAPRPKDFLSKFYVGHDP
UniProt P39656: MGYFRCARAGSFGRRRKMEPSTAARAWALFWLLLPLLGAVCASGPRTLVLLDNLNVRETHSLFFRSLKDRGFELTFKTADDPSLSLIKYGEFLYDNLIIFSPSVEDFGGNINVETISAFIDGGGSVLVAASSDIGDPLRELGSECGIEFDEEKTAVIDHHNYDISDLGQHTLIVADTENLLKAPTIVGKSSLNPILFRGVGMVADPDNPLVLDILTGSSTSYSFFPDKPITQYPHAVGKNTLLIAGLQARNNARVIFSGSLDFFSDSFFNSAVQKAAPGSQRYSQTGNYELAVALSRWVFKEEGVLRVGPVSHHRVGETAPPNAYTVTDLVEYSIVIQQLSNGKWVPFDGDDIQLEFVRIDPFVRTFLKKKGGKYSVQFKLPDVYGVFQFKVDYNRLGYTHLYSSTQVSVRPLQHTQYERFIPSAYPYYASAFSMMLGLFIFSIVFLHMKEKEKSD
UniProt P13797: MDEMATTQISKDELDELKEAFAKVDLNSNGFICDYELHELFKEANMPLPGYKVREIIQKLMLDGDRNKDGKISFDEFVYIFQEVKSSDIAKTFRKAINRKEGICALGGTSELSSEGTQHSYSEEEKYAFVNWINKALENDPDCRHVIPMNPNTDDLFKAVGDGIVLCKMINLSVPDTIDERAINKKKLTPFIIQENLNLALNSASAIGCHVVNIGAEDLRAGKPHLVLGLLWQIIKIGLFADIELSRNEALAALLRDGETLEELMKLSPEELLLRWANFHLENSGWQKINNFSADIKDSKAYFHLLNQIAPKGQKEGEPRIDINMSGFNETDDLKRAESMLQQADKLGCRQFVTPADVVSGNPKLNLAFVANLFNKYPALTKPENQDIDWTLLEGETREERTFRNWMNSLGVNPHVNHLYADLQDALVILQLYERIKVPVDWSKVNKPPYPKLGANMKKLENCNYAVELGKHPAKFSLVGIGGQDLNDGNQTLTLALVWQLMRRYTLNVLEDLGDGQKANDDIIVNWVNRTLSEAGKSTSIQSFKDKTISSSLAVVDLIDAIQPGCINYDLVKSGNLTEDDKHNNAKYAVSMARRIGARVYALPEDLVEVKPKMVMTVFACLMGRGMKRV
UniProt Q8IZP0: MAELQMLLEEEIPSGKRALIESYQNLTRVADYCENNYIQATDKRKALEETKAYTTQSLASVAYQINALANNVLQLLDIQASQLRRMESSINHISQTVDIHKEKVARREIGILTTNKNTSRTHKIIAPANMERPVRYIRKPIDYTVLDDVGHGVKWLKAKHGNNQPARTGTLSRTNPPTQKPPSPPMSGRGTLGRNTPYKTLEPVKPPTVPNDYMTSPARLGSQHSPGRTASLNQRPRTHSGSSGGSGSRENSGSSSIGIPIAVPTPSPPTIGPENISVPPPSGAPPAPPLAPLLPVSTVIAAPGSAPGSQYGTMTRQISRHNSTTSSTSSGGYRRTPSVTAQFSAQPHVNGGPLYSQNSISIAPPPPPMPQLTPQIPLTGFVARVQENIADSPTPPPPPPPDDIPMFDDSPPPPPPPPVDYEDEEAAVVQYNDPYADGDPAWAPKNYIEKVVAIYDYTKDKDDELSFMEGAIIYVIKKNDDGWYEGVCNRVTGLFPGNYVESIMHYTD
UniProt A2RUC4: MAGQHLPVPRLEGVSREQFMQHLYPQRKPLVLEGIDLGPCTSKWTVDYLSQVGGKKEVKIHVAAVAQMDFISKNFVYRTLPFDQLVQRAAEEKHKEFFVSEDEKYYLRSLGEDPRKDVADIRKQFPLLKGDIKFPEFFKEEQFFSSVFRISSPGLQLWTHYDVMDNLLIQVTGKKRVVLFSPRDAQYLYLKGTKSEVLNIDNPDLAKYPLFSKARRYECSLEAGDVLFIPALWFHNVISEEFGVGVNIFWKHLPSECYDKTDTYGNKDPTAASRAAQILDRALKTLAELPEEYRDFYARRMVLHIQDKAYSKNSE
UniProt Q8NEL9: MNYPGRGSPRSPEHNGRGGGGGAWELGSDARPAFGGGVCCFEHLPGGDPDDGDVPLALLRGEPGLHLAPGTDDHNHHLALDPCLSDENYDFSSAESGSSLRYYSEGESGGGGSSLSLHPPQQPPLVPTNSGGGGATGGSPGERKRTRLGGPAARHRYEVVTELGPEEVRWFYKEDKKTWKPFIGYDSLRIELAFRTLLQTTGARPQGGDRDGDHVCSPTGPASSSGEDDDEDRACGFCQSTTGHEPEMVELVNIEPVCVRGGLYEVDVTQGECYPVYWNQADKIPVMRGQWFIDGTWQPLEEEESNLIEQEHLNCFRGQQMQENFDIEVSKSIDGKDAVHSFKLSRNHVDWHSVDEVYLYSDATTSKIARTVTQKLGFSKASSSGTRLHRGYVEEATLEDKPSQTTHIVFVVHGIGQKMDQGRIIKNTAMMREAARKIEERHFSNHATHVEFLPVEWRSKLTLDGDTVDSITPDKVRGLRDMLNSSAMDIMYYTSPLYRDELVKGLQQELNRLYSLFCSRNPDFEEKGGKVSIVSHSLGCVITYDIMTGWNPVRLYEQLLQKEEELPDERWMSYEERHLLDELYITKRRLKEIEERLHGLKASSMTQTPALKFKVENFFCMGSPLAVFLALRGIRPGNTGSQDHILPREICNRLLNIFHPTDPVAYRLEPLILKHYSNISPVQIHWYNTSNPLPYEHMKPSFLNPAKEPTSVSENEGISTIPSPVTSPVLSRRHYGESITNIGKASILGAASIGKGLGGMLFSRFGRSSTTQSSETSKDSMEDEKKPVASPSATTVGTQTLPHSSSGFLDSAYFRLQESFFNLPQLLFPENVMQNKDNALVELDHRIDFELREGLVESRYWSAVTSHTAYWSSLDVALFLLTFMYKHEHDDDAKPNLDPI
UniProt Q8N954: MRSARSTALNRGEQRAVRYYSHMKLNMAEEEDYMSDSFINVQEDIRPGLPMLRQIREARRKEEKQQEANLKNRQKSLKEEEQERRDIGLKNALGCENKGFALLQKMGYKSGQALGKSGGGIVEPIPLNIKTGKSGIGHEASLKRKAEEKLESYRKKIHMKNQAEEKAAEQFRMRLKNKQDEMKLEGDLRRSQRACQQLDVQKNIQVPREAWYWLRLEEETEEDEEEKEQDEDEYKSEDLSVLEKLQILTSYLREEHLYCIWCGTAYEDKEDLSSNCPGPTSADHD
UniProt O43933: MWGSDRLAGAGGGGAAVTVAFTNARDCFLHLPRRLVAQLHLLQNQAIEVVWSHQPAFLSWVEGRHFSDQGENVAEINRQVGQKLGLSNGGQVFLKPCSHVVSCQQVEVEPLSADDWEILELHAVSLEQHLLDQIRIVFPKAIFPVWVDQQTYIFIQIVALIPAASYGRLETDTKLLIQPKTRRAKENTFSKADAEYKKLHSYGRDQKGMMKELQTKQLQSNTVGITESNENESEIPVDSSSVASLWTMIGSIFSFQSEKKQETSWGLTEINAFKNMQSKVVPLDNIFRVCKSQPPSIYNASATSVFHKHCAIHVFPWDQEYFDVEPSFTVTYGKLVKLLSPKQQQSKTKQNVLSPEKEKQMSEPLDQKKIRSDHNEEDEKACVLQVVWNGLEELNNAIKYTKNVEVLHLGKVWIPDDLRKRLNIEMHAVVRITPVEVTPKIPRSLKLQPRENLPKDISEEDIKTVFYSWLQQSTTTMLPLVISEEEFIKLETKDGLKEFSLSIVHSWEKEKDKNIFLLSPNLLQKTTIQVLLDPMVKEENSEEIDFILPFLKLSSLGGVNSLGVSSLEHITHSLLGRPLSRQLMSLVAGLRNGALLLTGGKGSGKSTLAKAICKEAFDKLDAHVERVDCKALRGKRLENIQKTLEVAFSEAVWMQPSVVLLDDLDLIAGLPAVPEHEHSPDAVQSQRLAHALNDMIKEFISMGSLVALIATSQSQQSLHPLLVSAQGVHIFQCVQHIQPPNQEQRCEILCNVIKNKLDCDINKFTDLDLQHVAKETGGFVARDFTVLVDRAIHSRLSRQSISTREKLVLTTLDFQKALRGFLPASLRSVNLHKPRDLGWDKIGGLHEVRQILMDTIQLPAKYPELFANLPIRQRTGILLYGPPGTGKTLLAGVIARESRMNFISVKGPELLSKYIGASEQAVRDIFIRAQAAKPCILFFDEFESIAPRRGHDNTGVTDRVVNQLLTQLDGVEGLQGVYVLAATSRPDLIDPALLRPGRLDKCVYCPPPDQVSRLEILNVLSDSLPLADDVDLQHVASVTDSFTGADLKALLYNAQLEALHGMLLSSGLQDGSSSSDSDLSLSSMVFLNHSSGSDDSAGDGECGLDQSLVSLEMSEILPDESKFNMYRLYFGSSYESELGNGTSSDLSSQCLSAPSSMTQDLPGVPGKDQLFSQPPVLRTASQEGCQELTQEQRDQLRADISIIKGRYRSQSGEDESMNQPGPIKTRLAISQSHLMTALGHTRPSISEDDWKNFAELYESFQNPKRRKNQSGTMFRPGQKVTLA

Compound: Nc1nc2c(ncn2[C@@H]2O[C@H](COP(=O)(O)OP(=O)(O)OP(=O)(O)O)[C@@H](O)[C@H]2O)c(=O)[nH]1 [guanosine triphosphate]
Test: NP40-soluble protein abundance relative to vehicle (solubility fold change) (ratio); higher = more soluble protein in presence of GTP
Outline: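 Each value is a fold change relative to the detergent-processed vehicle, calculated per replicate from vsn-normalised intensities. Jurkat crude lysate received eight concentrations (0.1 to 10 mM) for 10 min at room temperature and 3 min at 37 °C, then was solubilised in 0.8% NP40 with benzonase (60 min, 4 °C). The ultracentrifuged supernatant was TMT-labelled and run by LC-MS/MS in three independent experiments.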

In the case of “A0A087X0M0|Q7Z5L2 and related entries (UniProt Q7Z5L2)”, the NP40-soluble protein abundance (concentration: 0.1mM) is reported as 1.02 ± 0.061, the NP40-soluble protein abundance (concentration: 0.5mM) is reported as 1.013 ± 0.0096 and the NP40-soluble protein abundance (concentration: 1mM) is reported as 1.02 ± 0.052. It also gave an NP40-soluble protein abundance (concentration: 2mM) of 0.973 ± 0.014, an NP40-soluble protein abundance (concentration: 4mM) of 1.04 ± 0.032 and an NP40-soluble protein abundance (concentration: 6mM) of 0.987 ± 0.051. It also gave an NP40-soluble protein abundance (concentration: 8mM) of 0.953 ± 0.054 and an NP40-soluble protein abundance (concentration: 10mM) of 1 ± 0.058.
“A0A0A0MRS5|A0A0C4DG97|F8W946 and related entries (UniProt Q9BXM9)” showed an NP40-soluble protein abundance (concentration: 0.1mM) of 1.02 ± 0.054, an NP40-soluble protein abundance (concentration: 0.5mM) of 0.993 ± 0.033 and an NP40-soluble protein abundance (concentration: 1mM) of 1.02 ± 0.1. The NP40-soluble protein abundance (concentration: 2mM) was 0.977 ± 0.088, the NP40-soluble protein abundance (concentration: 4mM) was 0.989 ± 0.11 and the NP40-soluble protein abundance (concentration: 6mM) was 0.947 ± 0.085. For the same target, the NP40-soluble protein abundance (concentration: 8mM) was 0.986 ± 0.091 and the NP40-soluble protein abundance (concentration: 10mM) was 0.918 ± 0.066.
“A0A0J9YXJ0|E9PC62 and related entries (UniProt O95319)” showed an NP40-soluble protein abundance (concentration: 0.1mM) of 0.968 ± 0.069, an NP40-soluble protein abundance (concentration: 0.5mM) of 0.948 ± 0.061 and an NP40-soluble protein abundance (concentration: 1mM) of 0.965 ± 0.063. It also gave an NP40-soluble protein abundance (concentration: 2mM) of 0.926 ± 0.079, an NP40-soluble protein abundance (concentration: 4mM) of 0.913 ± 0.074 and an NP40-soluble protein abundance (concentration: 6mM) of 0.891 ± 0.063. The NP40-soluble protein abundance (concentration: 8mM) was 0.932 ± 0.057 and the NP40-soluble protein abundance (concentration: 10mM) was 0.911 ± 0.07.
Work on “A0A0A0MRY0|Q8WUA7 and related entries (UniProt Q8WUA7)” yielded an NP40-soluble protein abundance (concentration: 0.1mM) of 1.11 ± 0.024, an NP40-soluble protein abundance (concentration: 0.5mM) of 1.05 ± 0.042 and an NP40-soluble protein abundance (concentration: 1mM) of 0.978 ± 0.026. It also gave an NP40-soluble protein abundance (concentration: 2mM) of 1.01 ± 0.039, an NP40-soluble protein abundance (concentration: 4mM) of 0.969 ± 0.12 and an NP40-soluble protein abundance (concentration: 6mM) of 0.94 ± 0.016. For the same target, the NP40-soluble protein abundance (concentration: 8mM) was 0.9628 ± 0.0058 and the NP40-soluble protein abundance (concentration: 10mM) was 0.884 ± 0.065.
Target A0A0C4DGS0|P56556 (UniProt P56556) has an NP40-soluble protein abundance (concentration: 0.1mM) of 0.947 ± 0.069, an NP40-soluble protein abundance (concentration: 0.5mM) of 0.934 ± 0.051 and an NP40-soluble protein abundance (concentration: 1mM) of 1.05 ± 0.1. For the same target, the NP40-soluble protein abundance (concentration: 2mM) was 1.08 ± 0.12, the NP40-soluble protein abundance (concentration: 4mM) was 1.09 ± 0.17 and the NP40-soluble protein abundance (concentration: 6mM) was 1.02 ± 0.093. For the same target, the NP40-soluble protein abundance (concentration: 8mM) was 0.939 ± 0.064 and the NP40-soluble protein abundance (concentration: 10mM) was 1.01 ± 0.1.
Target A0A0C4DGS1|P39656 (UniProt P39656) has an NP40-soluble protein abundance (concentration: 0.1mM) of 1 ± 0.036, an NP40-soluble protein abundance (concentration: 0.5mM) of 1.02 ± 0.076 and an NP40-soluble protein abundance (concentration: 1mM) of 0.921 ± 0.02. The NP40-soluble protein abundance (concentration: 2mM) was 0.963 ± 0.089, the NP40-soluble protein abundance (concentration: 4mM) was 0.968 ± 0.067 and the NP40-soluble protein abundance (concentration: 6mM) was 0.915 ± 0.067. For the same target, the NP40-soluble protein abundance (concentration: 8mM) was 0.873 ± 0.015 and the NP40-soluble protein abundance (concentration: 10mM) was 0.876 ± 0.035.
Target “A0A0A0MSQ0|H7C4N2 and related entries (UniProt P13797)” has an NP40-soluble protein abundance (concentration: 0.1mM) of 1.04 ± 0.065, an NP40-soluble protein abundance (concentration: 0.5mM) of 1.02 ± 0.04 and an NP40-soluble protein abundance (concentration: 1mM) of 0.953 ± 0.054. For the same target, the NP40-soluble protein abundance (concentration: 2mM) was 0.949 ± 0.056, the NP40-soluble protein abundance (concentration: 4mM) was 0.874 ± 0.076 and the NP40-soluble protein abundance (concentration: 6mM) was 0.941 ± 0.095. The NP40-soluble protein abundance (concentration: 8mM) was 0.943 ± 0.09 and the NP40-soluble protein abundance (concentration: 10mM) was 0.911 ± 0.09.
Work on “A0A0A0MRT6|B6VEX4 and related entries (UniProt Q8IZP0)” yielded an NP40-soluble protein abundance (concentration: 0.1mM) of 0.915 ± 0.016, an NP40-soluble protein abundance (concentration: 0.5mM) of 0.869 ± 0.051 and an NP40-soluble protein abundance (concentration: 1mM) of 1.04 ± 0.032. The NP40-soluble protein abundance (concentration: 2mM) was 1.05 ± 0.037, the NP40-soluble protein abundance (concentration: 4mM) was 1.06 ± 0.013 and the NP40-soluble protein abundance (concentration: 6mM) was 0.994 ± 0.02. For the same target, the NP40-soluble protein abundance (concentration: 8mM) was 0.971 ± 0.025 and the NP40-soluble protein abundance (concentration: 10mM) was 1.04 ± 0.072.
UniProt A2RUC4 was tested, and the NP40-soluble protein abundance (concentration: 0.1mM) was 1.01 ± 0.074, the NP40-soluble protein abundance (concentration: 0.5mM) was 1.01 ± 0.077 and the NP40-soluble protein abundance (concentration: 1mM) was 0.959 ± 0.038. The NP40-soluble protein abundance (concentration: 2mM) was 0.948 ± 0.055, the NP40-soluble protein abundance (concentration: 4mM) was 0.9 ± 0.047 and the NP40-soluble protein abundance (concentration: 6mM) was 0.885 ± 0.018. It also gave an NP40-soluble protein abundance (concentration: 8mM) of 0.911 ± 0.015 and an NP40-soluble protein abundance (concentration: 10mM) of 0.855 ± 0.079.
“A0A087X0H7|Q8NEL9 and related entries (UniProt Q8NEL9)” gave an NP40-soluble protein abundance (concentration: 0.1mM) of 1.06 ± 0.06, an NP40-soluble protein abundance (concentration: 0.5mM) of 1.05 ± 0.067 and an NP40-soluble protein abundance (concentration: 1mM) of 0.974 ± 0.14. For the same target, the NP40-soluble protein abundance (concentration: 2mM) was 1.03 ± 0.078, the NP40-soluble protein abundance (concentration: 4mM) was 1.01 ± 0.026 and the NP40-soluble protein abundance (concentration: 6mM) was 0.936 ± 0.024. It also gave an NP40-soluble protein abundance (concentration: 8mM) of 0.96 ± 0.14 and an NP40-soluble protein abundance (concentration: 10mM) of 0.879 ± 0.036.
With A0A0A0MSF9|Q8N954 (UniProt Q8N954) the NP40-soluble protein abundance (concentration: 0.1mM) was 0.954 ± 0.04, the NP40-soluble protein abundance (concentration: 0.5mM) was 0.893 ± 0.048 and the NP40-soluble protein abundance (concentration: 1mM) was 1.01 ± 0.017. The NP40-soluble protein abundance (concentration: 2mM) was 1.07 ± 0.044, the NP40-soluble protein abundance (concentration: 4mM) was 1.18 ± 0.062 and the NP40-soluble protein abundance (concentration: 6mM) was 1.2 ± 0.039. The NP40-soluble protein abundance (concentration: 8mM) was 1.24 ± 0.13 and the NP40-soluble protein abundance (concentration: 10mM) was 1.31 ± 0.14.
“A0A0C4DG33|H7BZH3 and related entries (UniProt O43933)” was tested, and the NP40-soluble protein abundance (concentration: 0.1mM) was 0.955 ± 0.085, the NP40-soluble protein abundance (concentration: 0.5mM) was 0.971 ± 0.047 and the NP40-soluble protein abundance (concentration: 1mM) was 0.95 ± 0.12. The NP40-soluble protein abundance (concentration: 2mM) was 1 ± 0.12, the NP40-soluble protein abundance (concentration: 4mM) was 1.02 ± 0.12 and the NP40-soluble protein abundance (concentration: 6mM) was 0.968 ± 0.17. The NP40-soluble protein abundance (concentration: 8mM) was 0.988 ± 0.12 and the NP40-soluble protein abundance (concentration: 10mM) was 1.04 ± 0.084.
